Reference: PubChem BioAssay AID504764 (Drosophila RNAi Screening Center, 2011)
In all, the deposit lists about 22,000 reagents; shown is a random part of those that have a named target and a result. In the full data, 403 (1.9%) are marked active. 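Unnormalised raw counts per well; ratio z-scores behind the hit calls and whether each hit raises or lowers signal are not deposited.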 The numbers tell different reagents against one gene apart. No sequences are given here. Not given: the amount of reagent.

Screen: 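Knock-downs that raise or lower a Notch target reporter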 (primary screen)
Cell system: Drosophila Kc167 cells
Reagent: long dsRNA against Drosophila genes
Timing: about 5 days (4 days dsRNA, then 24 h after transfection)
Challenge: transfection of constitutively active membrane-tethered Notch lacking the extracellular domain, read 24 h later
Detection: 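Light from a Notch-responsive E(spl)m3 luciferase reporter under active Notch, with control-promoter and no-Notch reporter wells to normalise; raw counts from paired wells a and b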
Scale: induced reporter light, run 1, well a and induced reporter light, run 1, well b: higher = more light from the Notch target reporter with active Notch; control promoter light, run 1, well a and control promoter light, run 1, well b: higher = more light from the viral control promoter (cell number, transfection, viability); uninduced reporter light, run 1, well a: higher = more light from the Notch target reporter without active Notch
Call rule: 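Hit if the duplicate-averaged log2 ratio of induced to control-promoter light gives a plate-wise z beyond ±2, or induced to uninduced beyond ±1.8; weak-control or discordant-duplicate wells dropped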
Meaning of the calls: active = modifier hit (raised or lowered Notch signal); inactive = not a hit

Gene	reagent	induced reporter light, run 1, well a	induced reporter light, run 1, well b	control promoter light, run 1, well a	control promoter light, run 1, well b	uninduced reporter light, run 1, well a	Outcome
CG15814 (GeneID 32765)	1	1.00e5	67880	83685	57675	6465	inactive
CG9393 (GeneID 41152)	1	1.22e5	1.31e5	1.31e5	1.15e5	9605	inactive
CG18088 (GeneID 34219)	1	1.11e5	1.35e5	68500	90875	17790	inactive
CG34309 (GeneID 5740636)	1	2.20e5	2.21e5	1.88e5	2.02e5	16050	inactive
Ir75a (GeneID 39982)	1	1.82e5	1.61e5	2.10e5	1.93e5	10305	inactive
Lap1 (GeneID 36670)	1	86225	1.00e5	1.20e5	1.20e5	9090	inactive
Ms (GeneID 44324)	1	1.40e5	1.62e5	2.01e5	1.95e5	13360	inactive
mgl (GeneID 8674055)	1	1.26e5	1.21e5	2.19e5	2.68e5	8580	inactive
mgl (GeneID 8674055)	2	2.44e5	1.96e5	2.02e5	2.09e5	13385	inactive
mgl (GeneID 8674055)	3	1.26e5	1.22e5	1.86e5	1.79e5	7065	inactive
mgl (GeneID 8674055)	4	52960	63075	1.07e5	1.12e5	4490	inactive
Cpr49Ae (GeneID 36351)	1	98135	81450	95785	80965	7040	inactive
Nepl20 (GeneID 43412)	1	1.24e5	1.34e5	1.56e5	1.81e5	11505	inactive
CG7255 (GeneID 39662)	1	1.21e5	1.19e5	77615	1.02e5	9355	inactive
CG9372 (GeneID 40137)	1	1.59e5	1.22e5	1.16e5	1.07e5	8550	inactive
CG8490 (GeneID 36338)	1	2.10e5	1.49e5	1.20e5	1.40e5	13705	inactive
Mcad (GeneID 38864)	1	90440	95230	63385	36120	10355	inactive
ppl (GeneID 40349)	1	1.27e5	1.11e5	82555	98565	9460	inactive
Gpdh3 (GeneID 42624)	1	67160	60795	86940	68030	8640	inactive
Gpdh3 (GeneID 42624)	2	1.76e5	1.63e5	1.67e5	1.51e5	11995	inactive
Hsc70-5 (GeneID 36583)	1	1.20e5	1.00e5	1.13e5	99420	9895	inactive
aos (GeneID 39833)	1	1.84e5	2.16e5	2.60e5	2.51e5	9795	inactive
CG14642 (GeneID 40532)	1	1.24e5	1.24e5	79370	94175	7670	inactive
CG11426 (GeneID 40471)	1	31630	30760	43285	35500	2810	inactive
CG8301 (GeneID 41160)	1	75205	65390	48100	42850	7040	inactive
CG42694 (GeneID 10178792)	1	76720	72605	88730	86305	8945	inactive
CG3626 (GeneID 31377)	1	1.18e5	1.53e5	2.35e5	2.66e5	10245	inactive
CG8097 (GeneID 32495)	1	77755	66080	72035	48735	9732	inactive
CG14573 (GeneID 40419)	1	32950	34940	40500	25235	3290	inactive
Gr93c (GeneID 117471)	1	1.72e5	1.47e5	1.80e5	1.78e5	10405	inactive
Vps13D (GeneID 39448)	1	1.19e5	1.23e5	1.69e5	1.52e5	9465	inactive
Vps13D (GeneID 39448)	2	1.46e5	1.44e5	2.09e5	2.03e5	9020	inactive
Fili (GeneID 5740472)	1	73850	58880	76200	78450	7655	inactive
Fili (GeneID 5740472)	2	33270	37295	36705	33505	2950	inactive
Fili (GeneID 5740472)	3	32470	41440	35575	50815	2050	inactive
